Counter-ions that a name gives are not always drawn. The list shows a part of the results. The calls rarely recur for the same compound in another form.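 Kinases were expressed as nanoluciferase fusions in K562 cells and luminescence was read every 4 h between 2 and 18 h as percent of control, DMSO set to 100% and a positive control to 0%. A time point counts as decreased when the signal drops significantly (2 sigma). The hit call is the authors' own, does not follow from the count of time points alone, and its rule is not shown.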
Tests used:
Conditions in all cases: K562; 2-18 h
RET = RET (UniProt P07949); assay: kinase-Nluc reporter destabilization hit call (1 = scored as downregulated) (binary); higher = compound decreases kinase abundance
[1] = target: RET_M918T (clone: RET_mut) (UniProt P07949); assay: as above
RIOK1 = RIOK1 (UniProt Q9BRS2); assay: as above
RIPK1 = RIPK1 (UniProt Q13546); assay: as above
RIPK2 = RIPK2 (UniProt O43353); assay: as above
ROR2 = ROR2 (UniProt Q01974); assay: as above
RPS6KA1 = RPS6KA1 (UniProt Q15418); assay: as above
SPHK1 = SPHK1 (UniProt Q9NYA1); assay: as above
SRC = SRC (UniProt P12931); assay: as above
STK24 = STK24 (UniProt Q9Y6E0); assay: as above
STK38 = STK38 (UniProt Q15208); assay: as above
SYK = SYK (UniProt P43405); assay: as above
TEC = TEC (UniProt P42680); assay: as above
TYK2 = TYK2 (UniProt P29597); assay: as above
ULK3 = ULK3 (UniProt Q6PHR2); assay: as above
YES1 = YES1 (UniProt P07947); assay: as above
ZAK = ZAK (UniProt Q9NYL2); assay: as above
ZAP70 = ZAP70 (UniProt P43403); assay: as above
ABL1 = ABL1 (UniProt P00519); assay: number of time points (of 5) at which kinase-Nluc abundance scored as decreased, DMSO-normalised (count); higher = more persistent destabilization
AKT1 = AKT1 (UniProt P31749); assay: as above

By UniProt entry, the sequences of proteins in these tests, tags left out. Where a name states a change or a piece, a line headed by the entry shows the natural chain unless it says otherwise.
UniProt P07949, whole entry, looked up: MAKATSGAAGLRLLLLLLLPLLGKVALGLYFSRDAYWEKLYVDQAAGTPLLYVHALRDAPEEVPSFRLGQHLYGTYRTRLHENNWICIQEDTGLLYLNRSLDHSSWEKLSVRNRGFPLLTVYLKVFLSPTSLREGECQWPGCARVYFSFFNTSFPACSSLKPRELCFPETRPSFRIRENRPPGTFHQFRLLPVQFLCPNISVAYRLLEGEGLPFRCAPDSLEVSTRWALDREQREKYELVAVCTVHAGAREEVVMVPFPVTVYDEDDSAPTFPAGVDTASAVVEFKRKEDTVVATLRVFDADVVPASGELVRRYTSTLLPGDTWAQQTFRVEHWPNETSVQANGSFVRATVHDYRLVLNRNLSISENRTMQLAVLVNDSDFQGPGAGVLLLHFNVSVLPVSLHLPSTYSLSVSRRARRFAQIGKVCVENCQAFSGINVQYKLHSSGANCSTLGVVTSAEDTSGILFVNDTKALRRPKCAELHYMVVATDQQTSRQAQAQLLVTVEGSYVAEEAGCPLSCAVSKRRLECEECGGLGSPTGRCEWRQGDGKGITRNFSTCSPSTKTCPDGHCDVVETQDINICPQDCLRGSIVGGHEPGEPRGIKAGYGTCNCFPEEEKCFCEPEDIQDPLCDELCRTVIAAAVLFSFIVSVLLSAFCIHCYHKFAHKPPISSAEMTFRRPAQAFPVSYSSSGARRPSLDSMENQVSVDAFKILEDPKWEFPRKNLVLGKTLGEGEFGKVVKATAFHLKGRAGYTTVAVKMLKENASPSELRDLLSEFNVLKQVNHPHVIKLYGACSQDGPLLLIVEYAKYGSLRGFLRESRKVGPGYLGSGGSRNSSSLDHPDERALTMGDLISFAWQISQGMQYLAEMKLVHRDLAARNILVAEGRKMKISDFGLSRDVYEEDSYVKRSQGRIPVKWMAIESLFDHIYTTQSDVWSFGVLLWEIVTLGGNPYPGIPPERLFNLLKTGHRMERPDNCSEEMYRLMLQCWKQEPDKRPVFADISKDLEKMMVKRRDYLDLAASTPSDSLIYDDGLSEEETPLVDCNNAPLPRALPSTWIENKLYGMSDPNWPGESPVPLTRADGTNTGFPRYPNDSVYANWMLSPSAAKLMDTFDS
UniProt P07949, whole entry M918T, looked up: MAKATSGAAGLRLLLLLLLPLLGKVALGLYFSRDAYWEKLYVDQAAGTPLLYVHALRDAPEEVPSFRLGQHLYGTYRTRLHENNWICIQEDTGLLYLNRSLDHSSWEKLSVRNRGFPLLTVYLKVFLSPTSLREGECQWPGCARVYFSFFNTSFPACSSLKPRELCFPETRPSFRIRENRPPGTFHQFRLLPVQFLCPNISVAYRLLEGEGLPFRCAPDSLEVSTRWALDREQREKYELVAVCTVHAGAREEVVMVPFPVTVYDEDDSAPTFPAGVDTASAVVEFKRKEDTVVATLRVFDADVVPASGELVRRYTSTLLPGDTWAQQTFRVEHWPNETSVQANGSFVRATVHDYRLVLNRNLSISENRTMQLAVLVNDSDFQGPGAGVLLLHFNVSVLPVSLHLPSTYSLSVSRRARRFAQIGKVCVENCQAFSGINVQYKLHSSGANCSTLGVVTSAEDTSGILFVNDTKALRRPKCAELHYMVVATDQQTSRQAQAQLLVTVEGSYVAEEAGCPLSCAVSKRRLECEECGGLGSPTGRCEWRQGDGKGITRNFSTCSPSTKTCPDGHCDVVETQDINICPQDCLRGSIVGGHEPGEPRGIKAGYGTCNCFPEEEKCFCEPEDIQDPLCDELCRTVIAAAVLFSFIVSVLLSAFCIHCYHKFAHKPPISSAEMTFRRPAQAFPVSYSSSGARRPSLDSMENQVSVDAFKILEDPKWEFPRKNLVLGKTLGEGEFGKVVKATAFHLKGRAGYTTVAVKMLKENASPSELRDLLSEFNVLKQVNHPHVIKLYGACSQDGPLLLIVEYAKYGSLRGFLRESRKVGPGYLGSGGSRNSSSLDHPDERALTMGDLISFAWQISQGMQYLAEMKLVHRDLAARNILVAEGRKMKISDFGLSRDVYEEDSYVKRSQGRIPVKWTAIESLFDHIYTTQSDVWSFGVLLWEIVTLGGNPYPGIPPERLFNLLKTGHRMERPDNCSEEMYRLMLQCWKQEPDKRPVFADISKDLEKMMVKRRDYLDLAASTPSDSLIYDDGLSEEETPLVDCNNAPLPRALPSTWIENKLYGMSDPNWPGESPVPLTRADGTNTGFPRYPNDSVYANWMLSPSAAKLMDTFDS
UniProt Q13546: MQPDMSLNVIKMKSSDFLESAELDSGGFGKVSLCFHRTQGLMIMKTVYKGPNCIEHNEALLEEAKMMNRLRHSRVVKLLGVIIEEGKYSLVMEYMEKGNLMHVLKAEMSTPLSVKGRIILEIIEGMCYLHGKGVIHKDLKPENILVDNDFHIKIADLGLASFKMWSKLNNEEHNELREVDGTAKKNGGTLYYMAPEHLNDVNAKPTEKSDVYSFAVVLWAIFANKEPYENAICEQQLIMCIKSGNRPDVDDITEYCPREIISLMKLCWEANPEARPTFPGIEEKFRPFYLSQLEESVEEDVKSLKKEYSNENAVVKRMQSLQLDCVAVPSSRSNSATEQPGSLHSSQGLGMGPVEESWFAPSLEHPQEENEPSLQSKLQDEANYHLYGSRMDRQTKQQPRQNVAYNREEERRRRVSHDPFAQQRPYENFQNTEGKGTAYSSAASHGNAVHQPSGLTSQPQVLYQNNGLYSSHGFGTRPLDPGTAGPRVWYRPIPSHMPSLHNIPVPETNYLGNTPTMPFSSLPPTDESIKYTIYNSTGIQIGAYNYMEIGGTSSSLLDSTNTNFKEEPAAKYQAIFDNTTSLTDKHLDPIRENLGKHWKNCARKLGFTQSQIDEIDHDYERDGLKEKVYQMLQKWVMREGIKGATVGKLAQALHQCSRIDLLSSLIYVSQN
UniProt Q9Y6E0: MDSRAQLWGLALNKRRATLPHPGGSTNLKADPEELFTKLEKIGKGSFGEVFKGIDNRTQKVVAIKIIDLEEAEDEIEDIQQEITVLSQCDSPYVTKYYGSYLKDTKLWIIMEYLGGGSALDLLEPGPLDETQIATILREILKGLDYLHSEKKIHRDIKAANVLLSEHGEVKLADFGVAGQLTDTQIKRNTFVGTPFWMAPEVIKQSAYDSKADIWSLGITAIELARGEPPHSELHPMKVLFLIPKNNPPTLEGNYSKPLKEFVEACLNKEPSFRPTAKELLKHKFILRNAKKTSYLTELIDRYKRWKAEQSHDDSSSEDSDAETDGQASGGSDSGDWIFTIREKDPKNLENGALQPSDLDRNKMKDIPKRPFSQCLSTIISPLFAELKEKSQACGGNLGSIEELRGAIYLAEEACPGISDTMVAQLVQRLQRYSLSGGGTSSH
UniProt Q15208: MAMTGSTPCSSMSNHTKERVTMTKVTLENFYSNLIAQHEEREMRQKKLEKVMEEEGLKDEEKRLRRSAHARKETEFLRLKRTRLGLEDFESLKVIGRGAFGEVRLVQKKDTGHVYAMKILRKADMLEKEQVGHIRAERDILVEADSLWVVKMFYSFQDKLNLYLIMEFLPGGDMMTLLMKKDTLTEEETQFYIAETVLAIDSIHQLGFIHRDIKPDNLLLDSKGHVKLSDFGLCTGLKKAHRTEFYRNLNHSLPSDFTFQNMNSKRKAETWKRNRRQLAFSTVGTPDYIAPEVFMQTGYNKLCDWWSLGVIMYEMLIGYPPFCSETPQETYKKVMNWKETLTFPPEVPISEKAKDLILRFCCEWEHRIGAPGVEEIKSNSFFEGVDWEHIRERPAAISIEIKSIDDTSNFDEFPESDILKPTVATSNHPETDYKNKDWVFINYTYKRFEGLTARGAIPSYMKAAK
UniProt P42680: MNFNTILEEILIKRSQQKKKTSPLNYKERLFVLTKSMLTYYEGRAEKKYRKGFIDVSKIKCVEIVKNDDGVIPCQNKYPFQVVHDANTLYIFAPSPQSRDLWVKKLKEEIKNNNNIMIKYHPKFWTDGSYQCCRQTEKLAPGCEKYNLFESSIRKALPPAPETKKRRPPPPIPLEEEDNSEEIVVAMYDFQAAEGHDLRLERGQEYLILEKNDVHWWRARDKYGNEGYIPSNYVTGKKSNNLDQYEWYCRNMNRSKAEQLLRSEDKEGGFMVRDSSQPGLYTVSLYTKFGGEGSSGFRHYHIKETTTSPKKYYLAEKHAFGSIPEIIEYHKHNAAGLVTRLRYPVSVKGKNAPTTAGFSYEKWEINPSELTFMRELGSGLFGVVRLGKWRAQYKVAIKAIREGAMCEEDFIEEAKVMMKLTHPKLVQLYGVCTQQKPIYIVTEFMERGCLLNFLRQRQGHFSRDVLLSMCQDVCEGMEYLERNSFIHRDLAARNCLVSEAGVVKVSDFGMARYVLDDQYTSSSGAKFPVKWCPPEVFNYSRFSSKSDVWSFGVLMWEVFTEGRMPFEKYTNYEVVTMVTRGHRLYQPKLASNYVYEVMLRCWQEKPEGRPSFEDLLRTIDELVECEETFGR
UniProt P29597: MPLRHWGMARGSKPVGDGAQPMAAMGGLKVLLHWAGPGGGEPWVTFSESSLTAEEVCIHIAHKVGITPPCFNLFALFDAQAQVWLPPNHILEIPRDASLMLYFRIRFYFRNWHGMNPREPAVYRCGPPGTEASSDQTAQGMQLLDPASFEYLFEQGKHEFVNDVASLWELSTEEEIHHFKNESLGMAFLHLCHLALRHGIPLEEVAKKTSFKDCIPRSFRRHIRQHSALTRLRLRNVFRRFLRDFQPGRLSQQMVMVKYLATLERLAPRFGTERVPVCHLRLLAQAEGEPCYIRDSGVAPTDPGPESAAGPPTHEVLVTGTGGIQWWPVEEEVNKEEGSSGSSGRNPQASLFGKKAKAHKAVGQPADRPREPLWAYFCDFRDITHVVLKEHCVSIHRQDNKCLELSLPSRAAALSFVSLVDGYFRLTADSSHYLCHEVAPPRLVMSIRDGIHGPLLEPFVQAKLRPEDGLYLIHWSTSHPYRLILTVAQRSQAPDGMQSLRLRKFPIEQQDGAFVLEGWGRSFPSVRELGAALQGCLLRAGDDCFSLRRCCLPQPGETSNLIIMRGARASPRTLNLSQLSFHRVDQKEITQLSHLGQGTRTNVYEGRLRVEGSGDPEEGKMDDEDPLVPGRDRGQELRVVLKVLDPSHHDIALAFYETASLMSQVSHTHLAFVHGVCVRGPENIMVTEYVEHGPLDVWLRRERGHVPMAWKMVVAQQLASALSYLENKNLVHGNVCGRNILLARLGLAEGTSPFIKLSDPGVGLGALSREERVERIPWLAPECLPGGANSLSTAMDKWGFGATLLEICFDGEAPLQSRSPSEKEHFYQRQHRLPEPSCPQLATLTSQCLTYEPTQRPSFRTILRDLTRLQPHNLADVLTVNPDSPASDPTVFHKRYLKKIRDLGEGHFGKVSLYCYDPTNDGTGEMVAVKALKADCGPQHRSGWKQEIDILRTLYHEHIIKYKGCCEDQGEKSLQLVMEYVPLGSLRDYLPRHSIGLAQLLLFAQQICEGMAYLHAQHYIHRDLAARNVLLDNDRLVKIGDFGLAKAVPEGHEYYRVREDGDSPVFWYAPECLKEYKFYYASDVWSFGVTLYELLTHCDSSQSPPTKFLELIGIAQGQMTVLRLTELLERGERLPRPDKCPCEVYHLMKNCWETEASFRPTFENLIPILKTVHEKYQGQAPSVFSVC
UniProt Q6PHR2: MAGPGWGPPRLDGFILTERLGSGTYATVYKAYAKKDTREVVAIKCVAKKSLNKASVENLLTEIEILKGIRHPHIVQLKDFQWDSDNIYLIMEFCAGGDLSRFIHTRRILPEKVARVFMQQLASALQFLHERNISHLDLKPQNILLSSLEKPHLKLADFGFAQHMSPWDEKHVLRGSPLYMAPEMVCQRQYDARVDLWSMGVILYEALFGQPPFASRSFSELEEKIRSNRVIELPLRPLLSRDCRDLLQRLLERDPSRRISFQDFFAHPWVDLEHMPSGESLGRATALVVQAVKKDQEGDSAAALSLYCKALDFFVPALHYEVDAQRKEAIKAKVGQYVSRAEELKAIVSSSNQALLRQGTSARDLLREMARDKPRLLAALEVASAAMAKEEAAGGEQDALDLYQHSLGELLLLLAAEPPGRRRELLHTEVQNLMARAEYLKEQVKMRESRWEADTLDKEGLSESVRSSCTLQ
UniProt P31749: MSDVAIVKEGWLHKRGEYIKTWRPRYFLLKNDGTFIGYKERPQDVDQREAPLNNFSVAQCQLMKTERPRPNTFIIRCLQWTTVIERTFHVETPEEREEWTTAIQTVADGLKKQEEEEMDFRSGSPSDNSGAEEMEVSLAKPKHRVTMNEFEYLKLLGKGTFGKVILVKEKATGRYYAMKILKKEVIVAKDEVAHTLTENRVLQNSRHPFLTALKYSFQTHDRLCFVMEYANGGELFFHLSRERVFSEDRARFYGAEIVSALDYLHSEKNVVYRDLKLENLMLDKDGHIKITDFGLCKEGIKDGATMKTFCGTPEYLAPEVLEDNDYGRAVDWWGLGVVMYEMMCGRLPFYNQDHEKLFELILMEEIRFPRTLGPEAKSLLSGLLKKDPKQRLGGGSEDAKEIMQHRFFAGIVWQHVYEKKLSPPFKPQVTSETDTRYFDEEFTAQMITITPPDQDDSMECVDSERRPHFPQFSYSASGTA

SMILES	kinase-Nluc reporter destabilization hit call (RET)	kinase-Nluc reporter destabilization hit call [1]	kinase-Nluc reporter destabilization hit call (RIOK1)	kinase-Nluc reporter destabilization hit call (RIPK1)	kinase-Nluc reporter destabilization hit call (RIPK2)	kinase-Nluc reporter destabilization hit call (ROR2)	kinase-Nluc reporter destabilization hit call (RPS6KA1)	kinase-Nluc reporter destabilization hit call (SPHK1)	kinase-Nluc reporter destabilization hit call (SRC)	kinase-Nluc reporter destabilization hit call (STK24)	kinase-Nluc reporter destabilization hit call (STK38)	kinase-Nluc reporter destabilization hit call (SYK)	kinase-Nluc reporter destabilization hit call (TEC)	kinase-Nluc reporter destabilization hit call (TYK2)	kinase-Nluc reporter destabilization hit call (ULK3)	kinase-Nluc reporter destabilization hit call (YES1)	kinase-Nluc reporter destabilization hit call (ZAK)	kinase-Nluc reporter destabilization hit call (ZAP70)	number of time points (ABL1)	number of time points (AKT1)
CCc1ccc(NC(=O)Nc2ccccc2)cc1 (10 µM)	inactive: 0	inactive: 0	inactive: 0	inactive: 0	inactive: 0	inactive: 0	inactive: 0	inactive: 0	inactive: 0	inactive: 0	inactive: 0	inactive: 0	inactive: 0	inactive: 0	inactive: 0	inactive: 0	inactive: 0	inactive: 0	0	0
CCOC(=O)C1=C[C@]2(CC)CCCN3CCc4c(n1c1ccccc41)[C@@H]32 [Vinpocetine] (10 µM)	inactive: 0	inactive: 0	inactive: 0	inactive: 0	inactive: 0	inactive: 0	inactive: 0	inactive: 0	inactive: 0	inactive: 0	inactive: 0	inactive: 0	inactive: 0	inactive: 0	inactive: 0	inactive: 0	inactive: 0	inactive: 0	0	0
Cn1c(=O)c(Oc2ccc(F)cc2F)cc2cnc(NC(CCO)CCO)nc21 [Pamapimod] (10 µM)	inactive: 0	inactive: 0	inactive: 0	inactive: 0	inactive: 0	inactive: 0	inactive: 0	inactive: 0	inactive: 0	inactive: 0	inactive: 0	inactive: 0	inactive: 0	inactive: 0	inactive: 0	inactive: 0	inactive: 0	inactive: 0	0	0
CNC(=O)c1c(C)oc2cc(Oc3ncnc4cc(OC)c(OC)cc34)ccc12 [Fruquintinib] (10 µM)	inactive: 0	inactive: 0	inactive: 0	inactive: 0	inactive: 0	inactive: 0	inactive: 0	inactive: 0	inactive: 0	inactive: 0	inactive: 0	inactive: 0	inactive: 0	inactive: 0	inactive: 0	inactive: 0	inactive: 0	inactive: 0	0	0
COc1cc(Nc2nc3ccccc3nc2NS(=O)(=O)c2ccc(NC(=O)c3ccc(C)c(OC)c3)cc2)cc(OC)c1 (10 µM)	inactive: 0	inactive: 0	inactive: 0	inactive: 0	inactive: 0	inactive: 0	inactive: 0	inactive: 0	inactive: 0	inactive: 0	inactive: 0	inactive: 0	inactive: 0	inactive: 0	inactive: 0	inactive: 0	inactive: 0	inactive: 0	0	0
Nc1n[nH]c(N)c1N=Nc1ccc(O)cc1 (10 µM)	inactive: 0	inactive: 0	inactive: 0	inactive: 0	inactive: 0	inactive: 0	inactive: 0	inactive: 0	inactive: 0	inactive: 0	inactive: 0	inactive: 0	inactive: 0	inactive: 0	inactive: 0	inactive: 0	inactive: 0	inactive: 0	0	0
Cn1cc(C2=C(c3c4n(c5ccccc35)CCC(CN)C4)C(=O)NC2=O)c2ccccc21 (stereo not given) [Bisindolylmaleimide X (hydrochloride)] (2.5 µM)	inactive: 0	inactive: 0	inactive: 0	inactive: 0	inactive: 0	inactive: 0	inactive: 0	inactive: 0	inactive: 0	inactive: 0	inactive: 0	inactive: 0	inactive: 0	inactive: 0	inactive: 0	inactive: 0	inactive: 0	inactive: 0	0	0
COC(=O)[C@]1(C)CC[C@]2(C(=O)O[C@@H]3O[C@H](CO)[C@@H](O)[C@H](O)[C@H]3O)CC[C@]3(C)C(=CC[C@@H]4[C@@]5(C)C[C@H](O)[C@H](O[C@@H]6OC[C@@H](O[C@@H]7O[C@H](CO)[C@@H](O)[C@H](O)[C@H]7O)[C@H](O)[C@H]6O)[C@@](C)(CO)C5CC[C@]43C)[C@H]2C1 (stereo not given in full) [Esculentoside H] (10 µM)	inactive: 0	inactive: 0	inactive: 0	inactive: 0	inactive: 0	inactive: 0	inactive: 0	inactive: 0	inactive: 0	inactive: 0	inactive: 0	inactive: 0	inactive: 0	inactive: 0	inactive: 0	inactive: 0	inactive: 0	inactive: 0	0	0
Cc1cc(F)c(Nc2ncnc3cc(OCc4ccccc4)ccc23)cc1O (10 µM)	inactive: 0	inactive: 0	inactive: 0	inactive: 0	inactive: 0	inactive: 0	inactive: 0	inactive: 0	inactive: 0	inactive: 0	inactive: 0	inactive: 0	inactive: 0	inactive: 0	inactive: 0	inactive: 0	inactive: 0	inactive: 0	0	0
C[C@@H]1CN(Cc2cn[nH]c2-c2ccc(C#N)cc2)CCN1c1ccc(C(F)(F)F)cn1 (2.5 µM)	inactive: 0	inactive: 0	inactive: 0	inactive: 0	inactive: 0	inactive: 0	inactive: 0	inactive: 0	inactive: 0	inactive: 0	inactive: 0	inactive: 0	inactive: 0	inactive: 0	inactive: 0	inactive: 0	inactive: 0	inactive: 0	0	0
N#C/C(=C\c1ccc[nH]1)c1ccc(Cl)c(Cl)c1 (2.5 µM)	inactive: 0	inactive: 0	inactive: 0	inactive: 0	inactive: 0	inactive: 0	inactive: 0	inactive: 0	inactive: 0	inactive: 0	inactive: 0	inactive: 0	inactive: 0	inactive: 0	inactive: 0	inactive: 0	inactive: 0	inactive: 0	0	0
O=C1NCCSc2c1sc1ccc(O)cc21 (2.5 µM)	inactive: 0	inactive: 0	inactive: 0	inactive: 0	inactive: 0	inactive: 0	inactive: 0	inactive: 0	inactive: 0	inactive: 0	inactive: 0	inactive: 0	inactive: 0	inactive: 0	inactive: 0	inactive: 0	inactive: 0	inactive: 0	0	0
C[C@@H]1CC[C@]2(C(=O)O)CC[C@]3(C)C(=CC[C@@H]4[C@@]5(C)CC[C@H](O)[C@@](C)(CO)[C@@H]5CC[C@]43C)[C@@H]2[C@]1(C)O [Rotundic acid] (10 µM)	inactive: 0	inactive: 0	inactive: 0	inactive: 0	inactive: 0	inactive: 0	inactive: 0	inactive: 0	inactive: 0	inactive: 0	inactive: 0	inactive: 0	inactive: 0	inactive: 0	inactive: 0	inactive: 0	inactive: 0	inactive: 0	0	0
NC(=O)c1cccc2c(N[C@H](CN3CCC3)c3ccc(Cl)c(C(F)(F)F)c3)ncnc12 (10 µM)	inactive: 0	inactive: 0	inactive: 0	inactive: 0	inactive: 0	inactive: 0	inactive: 0	inactive: 0	inactive: 0	inactive: 0	inactive: 0	inactive: 0	inactive: 0	inactive: 0	inactive: 0	inactive: 0	inactive: 0	inactive: 0	0	0
Cc1ccc(-c2csc(Cn3nc(CC4OCCCO4)c4ccccc4c3=O)n2)cc1 (10 µM)	inactive: 0	inactive: 0	inactive: 0	inactive: 0	inactive: 0	inactive: 0	inactive: 0	inactive: 0	inactive: 0	inactive: 0	inactive: 0	inactive: 0	inactive: 0	inactive: 0	inactive: 0	inactive: 0	inactive: 0	inactive: 0	0	0
Cc1cccc(Cn2nc(C)c3c(NC(=O)c4csc5c(N)ncnc45)cccc32)n1 (10 µM)	inactive: 0	inactive: 0	inactive: 0	inactive: 0	inactive: 0	inactive: 0	inactive: 0	inactive: 0	inactive: 0	inactive: 0	inactive: 0	inactive: 0	inactive: 0	inactive: 0	inactive: 0	inactive: 0	inactive: 0	inactive: 0	0	0
COc1ccc2c(c1)C[C@H](C(=O)Nc1ccc(-c3cn[nH]c3)cc1OCCN(C)C)CO2 [Chroman 1] (10 µM)	inactive: 0	inactive: 0	inactive: 0	inactive: 0	inactive: 0	inactive: 0	inactive: 0	inactive: 0	inactive: 0	inactive: 0	inactive: 0	inactive: 0	inactive: 0	inactive: 0	inactive: 0	inactive: 0	inactive: 0	inactive: 0	0	0
CCCCCC1CC1CC1CC1CCCCCCCC(=O)O (stereo not given) (10 µM)	inactive: 0	inactive: 0	inactive: 0	inactive: 0	inactive: 0	inactive: 0	inactive: 0	inactive: 0	inactive: 0	inactive: 0	inactive: 0	inactive: 0	inactive: 0	inactive: 0	inactive: 0	inactive: 0	inactive: 0	inactive: 0	0	0
COc1cc2nccc(Oc3ccc(NC(=O)Nc4ccc(F)cc4F)c(F)c3)c2cc1OC (10 µM)	inactive: 0	inactive: 0	inactive: 0	inactive: 0	inactive: 0	inactive: 0	inactive: 0	inactive: 0	inactive: 0	inactive: 0	inactive: 0	inactive: 0	inactive: 0	inactive: 0	inactive: 0	inactive: 0	inactive: 0	inactive: 0	0	0

Random excerpt: 2 entries already listed
SMILES	kinase-Nluc reporter destabilization hit call (RET)	kinase-Nluc reporter destabilization hit call [1]	kinase-Nluc reporter destabilization hit call (RIOK1)	kinase-Nluc reporter destabilization hit call (RIPK1)	kinase-Nluc reporter destabilization hit call (RIPK2)	kinase-Nluc reporter destabilization hit call (ROR2)	kinase-Nluc reporter destabilization hit call (RPS6KA1)	kinase-Nluc reporter destabilization hit call (SPHK1)	kinase-Nluc reporter destabilization hit call (SRC)	kinase-Nluc reporter destabilization hit call (STK24)	kinase-Nluc reporter destabilization hit call (STK38)	kinase-Nluc reporter destabilization hit call (SYK)	kinase-Nluc reporter destabilization hit call (TEC)	kinase-Nluc reporter destabilization hit call (TYK2)	kinase-Nluc reporter destabilization hit call (ULK3)	kinase-Nluc reporter destabilization hit call (YES1)	kinase-Nluc reporter destabilization hit call (ZAK)	kinase-Nluc reporter destabilization hit call (ZAP70)	number of time points (ABL1)	number of time points (AKT1)
Cc1cccc(Cn2nc(C)c3c(NC(=O)c4csc5c(N)ncnc45)cccc32)n1 (10 µM)	inactive: 0	inactive: 0	inactive: 0	inactive: 0	inactive: 0	inactive: 0	inactive: 0	inactive: 0	inactive: 0	inactive: 0	inactive: 0	inactive: 0	inactive: 0	inactive: 0	inactive: 0	inactive: 0	inactive: 0	inactive: 0	0	0
Cn1c(=O)c(Oc2ccc(F)cc2F)cc2cnc(NC(CCO)CCO)nc21 [Pamapimod] (10 µM)	inactive: 0	inactive: 0	inactive: 0	inactive: 0	inactive: 0	inactive: 0	inactive: 0	inactive: 0	inactive: 0	inactive: 0	inactive: 0	inactive: 0	inactive: 0	inactive: 0	inactive: 0	inactive: 0	inactive: 0	inactive: 0	0	0
